From article PMC9223585, “Structural and Functional Insights into CP2c Transcription Factor Complexes” (International Journal of Molecular Sciences, 2022)
No constants are given. Whether binding was seen depends on the method and setting. Binding seen in cells or lysates may run through a third protein. Some binding calls cover weakened binding; strength is not graded here. For some assays here: Sequences can lack the tags named with a protein. Blank lines part the entries; values can stand above or below the molecule they belong to.

Chains of the proteins cited; added tags and fusions are not shown.
UniProt O75925: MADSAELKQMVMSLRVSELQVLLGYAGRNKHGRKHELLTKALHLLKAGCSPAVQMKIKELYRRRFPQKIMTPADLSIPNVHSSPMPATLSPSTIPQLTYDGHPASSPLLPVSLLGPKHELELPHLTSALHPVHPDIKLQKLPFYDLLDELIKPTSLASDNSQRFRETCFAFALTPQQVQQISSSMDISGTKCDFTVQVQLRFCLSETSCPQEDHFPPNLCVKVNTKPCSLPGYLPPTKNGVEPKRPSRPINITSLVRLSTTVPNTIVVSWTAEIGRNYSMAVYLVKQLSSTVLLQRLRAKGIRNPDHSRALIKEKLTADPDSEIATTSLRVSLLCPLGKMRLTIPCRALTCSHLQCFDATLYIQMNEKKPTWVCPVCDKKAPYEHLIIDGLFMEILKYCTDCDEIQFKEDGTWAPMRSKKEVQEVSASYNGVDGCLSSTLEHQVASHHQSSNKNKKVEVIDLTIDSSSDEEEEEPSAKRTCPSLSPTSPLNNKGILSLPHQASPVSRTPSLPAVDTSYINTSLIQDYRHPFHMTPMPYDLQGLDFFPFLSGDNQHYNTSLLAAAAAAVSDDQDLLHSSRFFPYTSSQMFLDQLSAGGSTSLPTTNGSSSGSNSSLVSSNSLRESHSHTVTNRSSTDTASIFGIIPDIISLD
UniProt O88907: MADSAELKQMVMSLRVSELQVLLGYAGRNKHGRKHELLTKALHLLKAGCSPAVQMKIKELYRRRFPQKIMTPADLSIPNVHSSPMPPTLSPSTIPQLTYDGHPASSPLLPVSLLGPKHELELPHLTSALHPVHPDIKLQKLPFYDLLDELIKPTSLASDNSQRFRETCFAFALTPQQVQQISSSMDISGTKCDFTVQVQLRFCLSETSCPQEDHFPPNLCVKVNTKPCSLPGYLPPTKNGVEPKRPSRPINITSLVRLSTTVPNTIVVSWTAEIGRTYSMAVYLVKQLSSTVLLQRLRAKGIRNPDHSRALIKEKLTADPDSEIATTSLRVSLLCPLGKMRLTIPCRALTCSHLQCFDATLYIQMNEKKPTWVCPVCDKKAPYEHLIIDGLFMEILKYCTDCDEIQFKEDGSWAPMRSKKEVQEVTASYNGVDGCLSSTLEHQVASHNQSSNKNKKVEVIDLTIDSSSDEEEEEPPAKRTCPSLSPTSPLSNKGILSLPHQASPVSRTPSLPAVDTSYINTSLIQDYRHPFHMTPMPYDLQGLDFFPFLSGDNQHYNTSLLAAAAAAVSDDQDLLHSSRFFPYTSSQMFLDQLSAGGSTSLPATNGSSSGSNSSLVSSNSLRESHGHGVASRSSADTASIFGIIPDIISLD

Tests used:
[1] = target: T1, CP2c (TFCP2), endogenous human (human (endogenous in MDA-MB-231)) (UniProt Q12800); test: cross-linking + pull-down; biotin-labelled double-stranded DNA probes (Hba-a2 promoter, Gata1 enhancer; wild type and mutants) cross-linked with nuclear lysate by 2 mM DSP 30 min at room temperature, pulled down on Streptavidin-Sepharose, Western blot with and without DTT; the complex is held by the DNA that CP2c binds
T1 sequence: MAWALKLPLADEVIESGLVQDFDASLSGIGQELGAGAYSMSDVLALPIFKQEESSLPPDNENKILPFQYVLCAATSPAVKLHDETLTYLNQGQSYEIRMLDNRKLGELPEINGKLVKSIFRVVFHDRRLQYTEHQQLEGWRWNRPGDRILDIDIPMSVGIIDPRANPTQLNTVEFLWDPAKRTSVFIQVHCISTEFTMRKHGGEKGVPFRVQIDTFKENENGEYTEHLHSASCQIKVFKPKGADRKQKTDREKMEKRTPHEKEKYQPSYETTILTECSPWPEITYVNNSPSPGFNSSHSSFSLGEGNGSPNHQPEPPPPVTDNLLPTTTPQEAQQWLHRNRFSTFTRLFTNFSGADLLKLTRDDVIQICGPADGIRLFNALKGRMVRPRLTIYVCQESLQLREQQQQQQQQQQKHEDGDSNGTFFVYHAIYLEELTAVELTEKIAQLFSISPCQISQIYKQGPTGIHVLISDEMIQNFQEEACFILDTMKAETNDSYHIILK

[2] = target: T2, CP2b, endogenous human (human (endogenous in MDA-MB-231)) (UniProt Q9NZI7); test: cross-linking + co-IP; DSP XL-WB: nuclear extracts of MDA-MB-231 cells, Benzonase, 2 mM DSP 30 min at room temperature, IP with CP2c, CP2b or PIAS1 antibodies, sequential Western blot with and without DTT
T2 sequence: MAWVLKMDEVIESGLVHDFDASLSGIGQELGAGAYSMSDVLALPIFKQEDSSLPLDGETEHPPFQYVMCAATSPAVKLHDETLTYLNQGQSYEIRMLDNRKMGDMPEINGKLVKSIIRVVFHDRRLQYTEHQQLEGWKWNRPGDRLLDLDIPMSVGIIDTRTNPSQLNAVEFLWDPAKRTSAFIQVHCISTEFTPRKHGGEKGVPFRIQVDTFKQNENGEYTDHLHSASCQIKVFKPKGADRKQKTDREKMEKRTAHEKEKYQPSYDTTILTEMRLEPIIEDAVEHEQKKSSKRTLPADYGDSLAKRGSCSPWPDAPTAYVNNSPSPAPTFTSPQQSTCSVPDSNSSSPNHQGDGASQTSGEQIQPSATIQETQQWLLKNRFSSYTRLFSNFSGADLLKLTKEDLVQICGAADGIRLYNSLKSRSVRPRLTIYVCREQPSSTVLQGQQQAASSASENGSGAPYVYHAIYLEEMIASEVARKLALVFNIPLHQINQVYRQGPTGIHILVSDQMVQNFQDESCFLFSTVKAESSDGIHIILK

[3] = target: T1, CP2c (TFCP2), endogenous human (human (endogenous in MDA-MB-231)); test: as above
[4] = target: T1, CP2c (TFCP2), endogenous human (human (endogenous in MDA-MB-231)); test: cross-linking + co-IP; DSP XL-WB: cytosolic extracts of MDA-MB-231 cells, Benzonase, 2 mM DSP 30 min at room temperature, IP with CP2c, CP2b or PIAS1 antibodies, sequential Western blot with and without DTT
[5] = target: T3, CP2c (Tfcp2), endogenous mouse (mouse (endogenous in MEL)) (UniProt Q9ERA0); test: cross-linking + co-IP; DSP XL-WB: cytosolic extracts of MEL cells, uninduced (d0) and HMBA-induced (d3), Benzonase, 2 mM DSP 30 min at room temperature, IP, sequential Western blot with and without DTT
T3 sequence: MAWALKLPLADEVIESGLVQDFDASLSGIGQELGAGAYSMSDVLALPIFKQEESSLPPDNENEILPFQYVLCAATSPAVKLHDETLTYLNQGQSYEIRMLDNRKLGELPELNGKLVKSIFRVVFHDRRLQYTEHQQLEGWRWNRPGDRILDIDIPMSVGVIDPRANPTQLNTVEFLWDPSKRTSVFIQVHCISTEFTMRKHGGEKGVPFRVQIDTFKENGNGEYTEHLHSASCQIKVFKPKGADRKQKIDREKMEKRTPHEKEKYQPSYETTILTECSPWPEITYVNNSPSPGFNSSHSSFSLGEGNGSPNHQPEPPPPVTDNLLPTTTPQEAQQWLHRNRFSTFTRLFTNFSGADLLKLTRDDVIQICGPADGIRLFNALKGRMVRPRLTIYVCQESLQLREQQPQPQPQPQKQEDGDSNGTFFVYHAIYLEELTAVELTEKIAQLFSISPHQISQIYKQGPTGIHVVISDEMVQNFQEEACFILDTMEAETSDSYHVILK

[6] = target: T3, CP2c (Tfcp2), endogenous mouse (mouse (endogenous in MEL)); test: cross-linking + co-IP; DSP XL-WB: nuclear extracts of MEL cells, uninduced (d0) and HMBA-induced (d3), Benzonase, 2 mM DSP 30 min at room temperature, IP, sequential Western blot with and without DTT
[7] = target: T4, Flag-CP2c (UniProt Q9ERA0); test: cross-linking + co-IP; DSP XL-WB: nuclear extracts of 293T cells overexpressing Flag-CP2c, EGFP-CP2b and Flag-PIAS1, with or without CP2a; 2 mM DSP, IP, sequential Western blot
T4 sequence: T3 sequence

[8] = target: PIAS1, endogenous human (human (endogenous in MDA-MB-231)) (UniProt O75925); test: cross-linking + co-IP; DSP XL-WB: nuclear extracts of MDA-MB-231 cells, Benzonase, 2 mM DSP 30 min at room temperature, IP with CP2c, CP2b or PIAS1 antibodies, sequential Western blot with and without DTT

- binding [1]: binds
- binding [2]: binds
- binding [3]: binds
- binding [4]: binds
Molecule: PIAS1, endogenous human (from UniProt O75925 1-651)

- binding [5]: binds
- binding [6]: binds
Molecule: Pias1, endogenous mouse (from UniProt O88907 1-651)

- binding [7]: binds
Molecule: Flag-PIAS1 (from UniProt O88907 1-651)

- binding [1]: binds
- binding [8]: binds
- binding [3]: binds
- binding [4]: binds
B1: CP2b, endogenous human (protein, UniProt Q9NZI7-1 1-540)
chain: T2 sequence

- binding [2]: binds
- binding [8]: binds
- binding [4]: binds
B2: CP2c (TFCP2), endogenous human (natural protein, human (endogenous in MDA-MB-231), UniProt Q12800-1 1-502, looked up)
chain: T1 sequence
notes: transcription factor CP2c (TFCP2, LBP-1c), endogenous in the human breast cancer line MDA-MB-231; both are human cells; also called α-CP2; LSF; source: endogenous, MDA-MB-231 nuclear and cytosolic lysate

- binding [5]: binds
- binding [6]: binds
B3: CP2b, endogenous mouse (protein, UniProt Q811S7 1-540)
chain: MAWVLSMDEVIESGLVHDFDSSLSGIGQELGAGAYSMSDVLALPIFKQEDSSLSLEDEAKHPPFQYVMCAATSPAVKLHDETLTYLNQGQSYEIRMLDNRKMGDMPELSGKLVKSIIRVVFHDRRLQYTEHQQLEGWKWNRPGDRLLDLDIPMSVGIIDTRTNPSQLNAVEFLWDPAKRTSAFIQVHCISTEFTPRKHGGEKGVPFRIQVDTFKQNENGEYTDHLHSASCQIKVFKPKGADRKQKNDREKMEKRTAHEKEKYQPSYDTTILTEMRLEPIIEDAVEHEQKKSSKRTLPADYGDSLAKRGSCSPWPDTPTAYVNNSPSPAPTFTSSQPSTCSVPDSNSSSPNHQGDGAAQASGEQIQPSATTQETQQWLLKNRFSSYTRLFSNFSGADLLKLTKEDLVQICGAADGIRLYNSLKSRSVRPRLTIYVCQEQPSSTALQGQPQAAGSGGESGGGTPSVYHAIYLEEMVASEVARKLASVFNIPFHQINQVYRQGPTGIHILVSDQMVQNFQDETCFLFSTVKAENNDGIHIILK

- binding [7]: binds
B4: EGFP-CP2b (protein, UniProt Q811S7 1-540)
chain: B3 chain

- binding [5]: binds
- binding [6]: binds
B5: CP2c (Tfcp2), endogenous mouse (protein, UniProt Q9ERA0 1-502)
chain: T3 sequence

- binding [4]: binds
B6: CP2a, endogenous human (protein, UniProt Q9NZI7-4 1-504)
chain: MAWVLKMDEVIESGLVHDFDASLSGIGQELGAGAYSMSDVLALPIFKQEDSSLPLDGETEHPPFQYVMCAATSPAVKLHDETLTYLNQGQSYEIRMLDNRKMGDMPEINGKLVKSIIRVVFHDRRLQYTEHQQLEGWKWNRPGDRLLDLDIPMSVGIIDTRTNPSQLNAVEFLWDPAKRTSAFIQVHCISTEFTPRKHGGEKGVPFRIQVDTFKQNENGEYTDHLHSASCQIKVFKPKGADRKQKTDREKMEKRTAHEKEKYQPSYDTTILTECSPWPDAPTAYVNNSPSPAPTFTSPQQSTCSVPDSNSSSPNHQGDGASQTSGEQIQPSATIQETQQWLLKNRFSSYTRLFSNFSGADLLKLTKEDLVQICGAADGIRLYNSLKSRSVRPRLTIYVCREQPSSTVLQGQQQAASSASENGSGAPYVYHAIYLEEMIASEVARKLALVFNIPLHQINQVYRQGPTGIHILVSDQMVQNFQDESCFLFSTVKAESSDGIHIILK
